Source: PubChem BioAssay AID2685 (National Center for Advancing Translational Sciences (NCATS), 2010)
About 2,100 (0.66%) of roughly 320,000 compounds were called active. The inconclusive results got no clear call from the source; some entries with a clear call stand among them for comparison. The call rests on the fitted dose curve; in most records, active means well fitted inhibition curve with a large enough effect in the signal ratio, with a control signal flat (not every such curve was filed as active); inconclusive means small, poorly fitted or top-dose-only effect, or effect the other way, or a change in a side signal; inactive means flat fitted curve, though single readings scatter; the % refers to the signal ratio. Potencies beside an inconclusive call are fits to weak or partial responses and may not hold up.

assay: qHTS Assay for Lipid Storage Modulators in Drosophila S3 Cells; settings: BODIPY lipid droplet fluorescence, 18-24 h, cells fed with added oleic acid; lipid storage change, negative = inhibition: at 46.1 µM (top of the series) unless noted
Procedure, shortened: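 Laser-scanning cytometry quantifies lipid droplet accumulation (500–530 nm total intensity; droplet/cell object ratio) in oleic acid-fed (400 uM added) Drosophila S3 cells treated with a concentration series. 20 uM Triacsin C defined 100% inhibition.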
On the % scale 0 is the no-effect control and ±100 the full control effect; potency means the concentration at half of the fitted maximal effect.

SMILES	Potency	lipid storage change, negative = inhibition
OCC1(CCOc2ccccc2)CCN(Cc2nc3ccc(F)cc3[nH]2)CC1	inconclusive: 29.1 µM [activator, single point]	
CN(C)C(CNC(=O)CSc1nc2ccccc2c(=O)n1Cc1ccco1)c1ccccc1 (stereo not drawn)		inconclusive: 20.7%
Cc1cc(C(=O)CSc2nn3c(=O)c(C(C)(C)C)nnc3s2)c(C)n1-c1ccc(F)cc1		inconclusive: -7.11%
O=C(Nc1ccccc1C(=O)N1CCCCC1)c1ccccc1C(F)(F)F		inconclusive: 14.7%
COC(=O)CSc1nnc(-c2cccnc2)n1-c1cc(OC)cc(OC)c1		inconclusive: 12.4%
Cc1ccc(-n2c(N)c(C(=O)N3CCOCC3)sc2=S)c(C)c1		inconclusive: 16.8%
COc1ccc(/C=C2\SC(=S)N(CC(=O)N(C)C3CCS(=O)(=O)C3)C2=O)cc1 (stereo not drawn)	inconclusive: 29.1 µM [activator, single point]	
Cc1ccc(NC(=O)CNC(=O)c2cccs2)cc1S(=O)(=O)Nc1ccc(Cl)cc1		inconclusive: 23.2%
Cc1ccccc1NC(=O)CSc1nnc(C)c(=O)[nH]1		inconclusive: 5.82%
CC(C)(C)OC(=O)C1C(=O)CC(C)(O)C(C(=O)OC(C)(C)C)C1c1cccnc1 (stereo not drawn)	inconclusive: 0.092 µM [activator, full curve]	
CC(=O)c1cc(C)ccc1OC(=O)CCN1C(=O)C2C3c4ccccc4C(c4ccccc43)C2C1=O (stereo not drawn)		inconclusive: 19.5%
COc1c(-c2ccc([N+](=O)[O-])cc2[N+](=O)[O-])c(=O)n(C)c(=O)n1C		inconclusive: 16.6%
O=C(NCc1n[nH]c(=S)n1-c1ccc(Br)cc1)c1ccc(S(=O)(=O)N2CCCCC2)cc1		inconclusive: -76.1%
CCOC(=O)c1c(Nc2ccccc2N)cc(C)nc1C		inconclusive: -1.58%
COC(=O)CN(C#N)c1nc(NC(C)C)nc(NC(C)C)n1		inconclusive: 12.4%
O=C(Nc1ccc(F)cc1F)N1CCC(c2nc3ccccc3o2)CC1		inconclusive: -5.54%
Cc1ccc(OCC(=O)N2CCCCCC2)c(C)c1		inconclusive: 44%
CCOc1ccccc1NC(=O)c1cccc(NC(=O)C(C)C)c1		inconclusive: -45.2% [cytotoxic] [at 0.00295 µM]
O=C(OCCOCCN=C1NS(=O)(=O)c2ccccc21)c1ccncc1		inactive
CC1CCCC(C)N1C(=O)Cn1c(=O)sc2ccccc21 (stereo not drawn)		inconclusive: -32.1%
COc1ccc(-c2nc3ccccc3nc2-c2ccc(OC)c(OC)c2)cc1OC		inconclusive: -100%
O=C(NCCCNC(=O)c1ccccn1)c1ccc(Cl)cc1		inconclusive: -89.1%
Cc1ccccc1N1CCN(c2ccc(NC(=O)C3CCCCC3C(=O)O)cc2)CC1 (stereo not drawn)		inconclusive: -0.263%
CC(=O)Nc1ccc(N)cc1	inconclusive: 1.03 µM [falling, single point]	
CCCC1C(=O)N(c2ccccc2)C1c1ccccc1 (stereo not drawn)		inconclusive: -7.45%
O=C(O)CSc1nnc(Cn2nnc3ccccc32)n1CCc1ccccc1		inconclusive: -9.98%

SMILES	Potency	lipid storage change, negative = inhibition
N#C/C(=C\c1cn(Cc2cccc(F)c2)c2ccccc12)C(=O)NCc1ccco1		inconclusive: 13.7%
CN(C)c1cc2c(cc1NC(=O)c1ccccc1Cl)n(C)c(=O)n2C	inconclusive: 1.3 µM [falling, full curve, poor fit]	
C=CCN1C(=O)C(C)(C)N(C(=O)c2cccc([N+](=O)[O-])c2)c2ccccc21	inconclusive: 6.51 µM [activator, single point]	
O=C(/C=C/Nc1ccc(Br)cc1F)c1ccccc1	inconclusive: 6.51 µM [falling, single point]	
Cc1cc(Oc2ccc(C#N)cc2)nc(NCc2ccccc2)n1	inconclusive: 3.26 µM [activator, single point]	
COc1ccc(N2CCN(C(=O)COC(=O)c3ccccc3OCc3ccc(F)cc3)CC2)cc1		inconclusive: -11.9%
NNC(=O)c1sccc1OCc1ccc(Cl)cc1Cl		inconclusive: 13.4%
Cc1ccc(NC(=O)C2Cc3ccccc3CN2C(=O)c2ccco2)cc1S(=O)(=O)N(C)C (stereo not drawn)		inconclusive: 8.55%
COc1cccc(NC(=O)c2cccnc2)c1		inconclusive: 21.7%
CC(C)C(OC(=O)CN1C(=O)COc2ccccc21)C(=O)NC1CCCCC1 (stereo not drawn)	inconclusive: 29.1 µM [falling, single point]	
CCOc1ccc(C/C(N)=N/n2cnnc2)cc1		inconclusive: 31.3%
O=S(=O)(NCc1ccccc1)c1ccc(S(=O)(=O)N(Cc2ccccn2)Cc2ccco2)cc1	inconclusive: 6.51 µM [activator, single point]	
CCn1c(=O)c2c3c(sc2n2c(=S)[nH]nc12)CCC3		inconclusive: -26.5%
O=C(NCCN1C(=O)S/C(=C\c2ccc(Cl)cc2)C1=O)c1ccc(F)c(S(=O)(=O)N2CCOCC2)c1		inconclusive: 4.27%
COC(=O)c1ccc(NS(=O)(=O)c2ccc(-c3cc(C)no3)s2)cc1		inconclusive: 67.6%
Cc1ccc(CNS(=O)(=O)/C=C/c2ccc3c(c2)OCO3)cc1		inconclusive: 60%
Cc1[nH]n(-c2ccccc2)c(=O)c1C=Nc1cccc2cccnc12		inconclusive: -44.9%
Cc1ccc(S(=O)(=O)C2(C(=O)O)CCCC2)cc1C		inconclusive: -18.7%
CCc1ccc(CNC(=O)CCC(=O)N2Cc3cccc(OC)c3Oc3ncccc32)cc1	inconclusive: 18.4 µM [activator, partial curve, poor fit]	
COCCN(C(=O)COC(=O)c1ccccc1Oc1ccccc1)c1c(N)n(Cc2ccccc2)c(=O)[nH]c1=O		inconclusive: -193%
Cc1cc2ncn(-c3ncnc4sc(C)c(C)c34)c2cc1C		inconclusive: 46.5%
CCOC(=O)C1CCN(C(=O)c2cc3c(ccc4ccccc43)o2)CC1		inconclusive: 135%
COc1ccc(NC(=S)NCC(O)c2ccccc2)c(OC)c1 (stereo not drawn)		inconclusive: 19.3%
CCOC(=O)c1c(C)[nH]c(C)c1C(=O)COC(=O)c1cccc(C)c1O		inconclusive: 30.8%
N#Cc1ccc(C(=O)Nc2nc(SCc3ccc(Cl)cc3)n[nH]2)cc1		inconclusive: 128%
C#CCOc1ccc(C2C3=C(CC(C)(C)CC3=O)N(CC(=O)O)C3=C2C(=O)CC(C)(C)C3)cc1OC	active: 10.3 µM	

SMILES	Potency	lipid storage change, negative = inhibition
Cc1ccc(N2CC(C(=O)Nc3nc4ccc(S(C)(=O)=O)cc4s3)CC2=O)cc1C (stereo not drawn)	inconclusive: 29.1 µM [activator, single point]	
Cn1c(=O)c2sccc2n(CC(=O)NCCC2=CCCCC2)c1=O		inconclusive: 19.6%
O=C(CSc1nnc(COc2cccc3cccnc23)o1)N1CCCC1		inconclusive: 1.76%
CCOC(=O)C1CCN(Cc2cc(Cl)c3ccccc3c2O)CC1	inconclusive: 16.4 µM [falling, partial curve, poor fit]	
Cc1occc1C(=O)N1CCN(S(=O)(=O)c2ccccc2)CC1		inconclusive: 13.7%
CCOCC(=O)N1CCN(c2cccc(Cl)c2)CC1		inconclusive: 14.2%
O=C(Cn1ccc([N+](=O)[O-])n1)NCc1cccs1		inconclusive: 24.2%
CC(C)OC(=O)c1cc(-c2ccc(C=O)o2)ccc1Cl		inconclusive: 13.8%
CCC1(C)Cc2ccccc2-c2nc3n(c(=O)c21)CCS3 (stereo not drawn)	inconclusive: 29.1 µM [rising, single point]	
CCNc1c(NS(=O)(=O)c2ccc(F)c(Cl)c2)c(=O)oc2ccccc12		inconclusive: -6.27%
O=C(c1cc2ccccc2oc1=O)N1CCN(C(=O)C2CCCO2)CC1 (stereo not drawn)		inconclusive: 5.22%
COc1ccc(S(=O)(=O)Nc2ccc3c(c2)OCCO3)cc1OC		inconclusive: 244%
O=S1(=O)CCOC[C@H](c2ccccc2)N1Cc1cccc(Cl)c1		inconclusive: -35.6%
COc1ccc(NC(=O)c2cccc(S(=O)(=O)N3CCCCCC3)c2)cc1	inconclusive: 29.1 µM [falling, partial curve, poor fit]	
CCCCc1nc2cc(C(=O)NC3CCOC(C)(C)C3)ccc2o1 (stereo not drawn)	inconclusive: 29.1 µM [activator, single point]	
O=C(COc1ccc(Cl)cc1Cl)NCc1ccncc1		inconclusive: 7.91%
O=C(c1ccc(NC(=O)C2(c3ccccc3)CCOCC2)cc1)N1CCOCC1	active: 23.1 µM	
O=C(c1ccccc1)c1cnc(-c2ccc(Cl)cc2)s1		inconclusive: 30.8%
CCn1c(=O)cc(OCC(=O)NCCC(C)C)c2ccccc21	inconclusive: 29.1 µM [activator, single point]	
O=C(CSC1=NS(=O)(=O)c2cc(F)ccc2N1)Nc1ccccc1F		inactive
COc1ccc(Br)cc1CNC(=O)C1CCN(S(=O)(=O)N2CCCC2)CC1		inconclusive: -26.9%
CCC(=O)Oc1oc(-c2ccccc2)nc1C=Nc1ccccc1OC	inconclusive: 0.0103 µM [falling, full curve, poor fit]	
COc1ccc(C)cc1NC(=O)CC(NC(C)=O)c1ccccc1 (stereo not drawn)		inconclusive: 9.52%
CN(C(=O)c1ccc([N+](=O)[O-])cc1)c1ccccc1C(=O)NCc1ccccc1	inconclusive: 20.6 µM [activator, single point]	
CC1CCc2sc3ncnc(N4CCN(C)CC4)c3c2C1 (stereo not drawn)	inconclusive: 0.92 µM [activator, full curve]	
Cc1cc(C)n(-c2nnc(C)n2/N=C/c2ccccc2O)n1	active: 18.4 µM	

7 entries already listed, arranged by SMILES length, rising.
SMILES	Potency	lipid storage change, negative = inhibition
CCOC(=O)C1CCN(Cc2cc(Cl)c3ccccc3c2O)CC1	inconclusive: 16.4 µM [falling, partial curve, poor fit]	
Cn1c(=O)c2sccc2n(CC(=O)NCCC2=CCCCC2)c1=O		inconclusive: 19.6%
O=S1(=O)CCOC[C@H](c2ccccc2)N1Cc1cccc(Cl)c1		inconclusive: -35.6%
O=C(c1cc2ccccc2oc1=O)N1CCN(C(=O)C2CCCO2)CC1 (stereo not drawn)		inconclusive: 5.22%
COc1ccc(Br)cc1CNC(=O)C1CCN(S(=O)(=O)N2CCCC2)CC1		inconclusive: -26.9%
CCNc1c(NS(=O)(=O)c2ccc(F)c(Cl)c2)c(=O)oc2ccccc12		inconclusive: -6.27%
Cc1ccc(N2CC(C(=O)Nc3nc4ccc(S(C)(=O)=O)cc4s3)CC2=O)cc1C (stereo not drawn)	inconclusive: 29.1 µM [activator, single point]	
